Out of some 330,000 compounds screened, about 7,700 (2.3%) were called active. Inconclusive means that the source gave no clear call. Such entries were picked first, then a sample of the others. The call rests on the fitted dose curve; in most records, active means well fitted inhibition curve with a large enough effect; inconclusive means small, poorly fitted or top-dose-only effect, or effect the other way; inactive means flat fitted curve, though single readings scatter. Potencies of inconclusive entries are doubtful fits and often do not repeat.
Assay: qHTS screen for small molecules that inhibit ELG1-dependent DNA repair in human embryonic kidney (HEK293T) cells expressing luciferase-tagged ELG1; further: nearly all actives have a fitted effect of over 55% in size
Details: HEK293T ELG1-luciferase reporter, luminescence, 16 h, DNA damage induced by 5-fluorouridine; series mostly up to 46.1 µM
Method in brief: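 Reporter activity after DNA damage by 5-fluorouridine is monitored. Compound-treated cells incubate 16 hr at 37 °C, then ONE-Glo is added for 30 min before luminescence reading.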
Potency means the concentration at half of the fitted maximal effect.

SMILES	Potency
CSc1ncccc1C(=O)OCC(=O)N1CCN(S(=O)(=O)c2ccc(C)cc2C)CC1	inconclusive: 14.6 µM [inhibitor, partial curve, poor fit]
CNCCCOc1ccc(Cl)cc1C(C)(C)C	inconclusive: 18.3 µM [inhibitor, single point]
CCn1c(C)[n+](CCCS(=O)(=O)[O-])c2cc(Cl)c(Cl)cc21	inactive
COc1ccc(CN2CCN(C(=O)c3cccs3)CC2)cc1Br	inconclusive: 23.1 µM [inhibitor, single point]
CCCCc1ccc(NC(=S)N2CCCC(C)C2)cc1 (stereo not drawn)	inconclusive: 29.1 µM [activator, single point]
CCCNc1nc2c(c(=O)n(C)c(=O)n2C)n1Cc1ccc(F)cc1	inconclusive: 13 µM [inhibitor, partial curve]
O=C(CCN1CCOCC1)NNC(=S)NC(=O)c1ccc(Br)cc1	inconclusive: 16.4 µM [inhibitor, partial curve, poor fit]
CC(C)(C)C(=O)N(CCN(C(=O)C(C)(C)C)c1ccccc1)c1ccccc1	inactive
CN(CC(=O)Nc1nc2ccccc2s1)S(=O)(=O)c1ccc(Br)cc1	inconclusive: 20.6 µM [inhibitor, partial curve, poor fit]
CC(=O)Nc1ccc(S(=O)(=O)NC(CC(=O)NCCc2ccccc2)C(C)C)cc1 (stereo not drawn)	inconclusive: 18.4 µM [activator, single point]
CC(=O)Nc1ccc(S(=O)(=O)N2CCN(CCCOc3ccccc3Cl)CC2)cc1	inconclusive: 20.6 µM [inhibitor, partial curve]
COc1ccc(N(CC(=O)N/N=C/c2cc3ccc(OC)cc3nc2Cl)S(=O)(=O)c2ccccc2)cc1	inconclusive: 6.51 µM [inhibitor, single point]
CCC(CC)NC(=O)/C=C/c1ccccc1Cl	inconclusive: 20.6 µM [activator, partial curve]
CC(C(=O)Nc1ccc(OCc2ccccc2)cc1)N1CCCC1 (stereo not drawn)	inconclusive: 13 µM [activator, partial curve]
O=C(N=c1ccn(-c2nc3ccccc3nc2NS(=O)(=O)c2ccc(Cl)cc2)cc1)c1cccs1	inconclusive: 29.1 µM [activator, single point]
COc1ccc(C(=O)O/N=C(\N)Cc2ccc(Cl)cc2Cl)cc1OC	inconclusive: 29.1 µM [inhibitor, single point]
Cc1ccc2c(c1)nnn2C1CCN(CC(=O)Nc2ccccc2N2CCOCC2)CC1	inconclusive: 29.1 µM [inhibitor, single point]
CSc1nc2ccc3nc(NC(=O)c4ccc(Cl)s4)sc3c2s1	inactive
Cc1ccc(OCC(=O)Nc2nnn(C)n2)c(C)c1	inconclusive: 16.4 µM [activator, partial curve]
COc1ccc(/C=C/C(=O)NC(=S)NNC(=O)c2cccnc2)cc1OC	inactive
O=C(OCC(=O)N1CCCCC1)c1c[nH]c2ccccc12	inconclusive: 14.6 µM [activator, partial curve]
NC(=O)CSc1nnc(-c2cccc(S(=O)(=O)N3CCCCC3)c2)o1	inconclusive: 29.1 µM [inhibitor, single point]

Exported field by field: 4 of the compounds above.
CCn1c(C)[n+](CCCS(=O)(=O)[O-])c2cc(Cl)c(Cl)cc21
  Potency: inactive
COc1ccc(CN2CCN(C(=O)c3cccs3)CC2)cc1Br
  Potency: inconclusive: 23.1 µM [inhibitor, single point]
CCCCc1ccc(NC(=S)N2CCCC(C)C2)cc1 (stereo not drawn)
  Potency: inconclusive: 29.1 µM [activator, single point]
CCCNc1nc2c(c(=O)n(C)c(=O)n2C)n1Cc1ccc(F)cc1
  Potency: inconclusive: 13 µM [inhibitor, partial curve]

Following part:

SMILES	Potency
N#Cc1cnc(SCC(=O)NNC(=O)COc2cccc3ccccc23)nc1N	inactive
O=C(Nc1nnc(C2CC2)s1)C1COc2ccccc2O1 (stereo not drawn)	inconclusive: 5.8 µM [activator, partial curve]
CCn1c(-c2ccc(F)cc2)n[nH]c1=S	inactive
CCOc1ccc(CN2CCN(C/C=C/c3ccc(OC)cc3)CC2CCO)cc1 (stereo not drawn)	inconclusive: 29.1 µM [inhibitor, single point]
O=C1CC(N2CCC(c3nc4ccccc4s3)CC2)C(=O)N1 (stereo not drawn)	inconclusive: 7.31 µM [activator, partial curve, poor fit]
CCc1ccc(CN2CCC(Oc3ccc(C(=O)N4CCCCC4)cc3)CC2)cc1	inconclusive: 23.1 µM [inhibitor, partial curve]
COc1cc(/C=C(\C#N)C(=O)Nc2cccc(C(=O)O)c2)ccc1OCc1ccc(Cl)cc1	inconclusive: 10.3 µM [activator, partial curve]
O=C(NC(=S)NN1CCCCC1c1cccnc1)c1ccc(Br)cc1 (stereo not drawn)	inconclusive: 29.1 µM [inhibitor, single point]
CCOC(=O)C1CCCN(Cc2nc(N)nc(Nc3ccc(Cl)cc3)n2)C1 (stereo not drawn)	inconclusive: 13 µM [inhibitor, partial curve, poor fit]
Cc1c(C(=O)Nc2c(N)nc(SCC(=O)NCC3CCCO3)[nH]c2=O)cccc1[N+](=O)[O-] (stereo not drawn)	inactive
Cc1cccc(-n2c(CCn3nc(C)c([N+](=O)[O-])c3C)n[nH]c2=S)c1	inactive
Fc1ccc(CSc2nnc(-c3ccncc3)o2)cc1	inconclusive: 20.6 µM [inhibitor, single point]
c1csc(-c2cn3c(n2)SCC3)c1	inconclusive: 5.17 µM [inhibitor, single point]
CCCOc1ccc(C(=O)c2nc3c(n2O)CCCCC3)cc1	inactive
CCN1CCN(C(=O)c2cc3cc4cc(OC)ccc4nc3s2)CC1	inconclusive: 4.61 µM [activator, single point]
Cc1ccc(C(C[N+](=O)[O-])c2c(N)n(C)c(=O)n(C)c2=O)cc1 (stereo not drawn)	inactive
COc1cc2c(cc1NC(=O)c1cccc(S(=O)(=O)N(C)C)c1)oc1ccccc12	inconclusive: 29.1 µM [inhibitor, single point]
CC1(C)CC(=O)C2=C(C1)NC(Nc1nc3ccccc3o1)=NC21CCCC1	inconclusive: 29.1 µM [activator, partial curve, poor fit]
CCOC(=O)c1ccc(NC(=O)N2CCOCC2)cc1	inconclusive: 29.1 µM [activator, single point]
CC(C)(C)c1ccc(NC(=O)CN2C(=O)NC(C)(C3CC3)C2=O)cc1 (stereo not drawn)	inactive
CCOC(=O)c1c(C)nc2c(c1-c1ccccc1)C(=O)c1ccccc1-2	inconclusive: 8.2 µM [inhibitor, single point]
